Laboratory results from patent US20050182002A1, “Agents which interact with a serotonin transporter for the treatment of cancer” (priority 2002, published 2005).
Where two headings read alike, the source gives them in different places.

Tested on: L3055 BL cells
Experiment: DNA synthesis by [3H]-thymidine incorporation in L3055 cells
Type: cell-based
Protocol: DNA synthesis was determined by measuring ^3H-thymidine ([^3H]Tdr; Amersham, UK) incorporation into cellular DNA. Cells were cultured in 200 μL of supplemented medium at densities and for times indicated below in flat-bottomed, 96-well tissue culture plates (Becton Dickinson, Oxford, U K) then pulsed for the final 4 h with 50 μl of 10 μCi/ml [^3H]Tdr before harvesting on a Skatron cell harvester (Helis Bio Ltd, Newmarket, UK).

Structure (SMILES) | influence of pre-treatment on 5-HT-dependent inhibition of DNA synthesis (in words) (cells pre-treated with agent before 5-HT) | influence of pre-treatment on 5-HT-dependent inhibition of DNA synthesis (in words)
CN1C2CCCC1CC(NC(=O)c1nn(C)c3ccccc13)C2 (centres unmarked) [granisetron] | failed to influence the ability of 5-HT to inhibit DNA synthesis | –
CC[C@@H](CO)NC(=O)[C@@H]1C=C2c3cccc4c3c(cn4C)C[C@H]2N(C)C1 [methysergide] | – | failed to influence the ability of 5-HT to inhibit DNA synthesis
